The list shows a part of the results.
Assays:
Assay in all cases: log2 fold change, soluble protein after heating vs DMSO (PISA); higher = thermal stabilisation; K562 lysate, 10 uM; active = over 0.2 and 3.5 SD of the protein, either way, in both replicates (recomputed)
[1] = compound: CC1=C2C(=CC=C1)N=C(N(C2=O)C3=CC=CC=C3C)CN4C=NC5=C(N=CN=C54)N
Outline: (§1)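 Dounce homogenisation of K562 pellets in PBS pH 7.4 with 1 mM MgCl2 produced a crude extract, used at 1 mg/mL protein. Exposure to 10 μM compound lasted 30 min, and aliquots were then heated for 3 min across 48°C-58°C, pooled and brought to 0.5% NP-40 at 4°C. The supernatant after 21,000xg for 90 min was quantified by TMTpro 16plex LC-MS/MS with channel sums equalised. Duplicate values are given as log-two fold change in thermal stability relative to solvent controls.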

By UniProt entry, the sequences of proteins in these tests, tags left out. Where a name states a change or a piece, a line headed by the entry shows the natural chain unless it says otherwise.
UniProt O95382: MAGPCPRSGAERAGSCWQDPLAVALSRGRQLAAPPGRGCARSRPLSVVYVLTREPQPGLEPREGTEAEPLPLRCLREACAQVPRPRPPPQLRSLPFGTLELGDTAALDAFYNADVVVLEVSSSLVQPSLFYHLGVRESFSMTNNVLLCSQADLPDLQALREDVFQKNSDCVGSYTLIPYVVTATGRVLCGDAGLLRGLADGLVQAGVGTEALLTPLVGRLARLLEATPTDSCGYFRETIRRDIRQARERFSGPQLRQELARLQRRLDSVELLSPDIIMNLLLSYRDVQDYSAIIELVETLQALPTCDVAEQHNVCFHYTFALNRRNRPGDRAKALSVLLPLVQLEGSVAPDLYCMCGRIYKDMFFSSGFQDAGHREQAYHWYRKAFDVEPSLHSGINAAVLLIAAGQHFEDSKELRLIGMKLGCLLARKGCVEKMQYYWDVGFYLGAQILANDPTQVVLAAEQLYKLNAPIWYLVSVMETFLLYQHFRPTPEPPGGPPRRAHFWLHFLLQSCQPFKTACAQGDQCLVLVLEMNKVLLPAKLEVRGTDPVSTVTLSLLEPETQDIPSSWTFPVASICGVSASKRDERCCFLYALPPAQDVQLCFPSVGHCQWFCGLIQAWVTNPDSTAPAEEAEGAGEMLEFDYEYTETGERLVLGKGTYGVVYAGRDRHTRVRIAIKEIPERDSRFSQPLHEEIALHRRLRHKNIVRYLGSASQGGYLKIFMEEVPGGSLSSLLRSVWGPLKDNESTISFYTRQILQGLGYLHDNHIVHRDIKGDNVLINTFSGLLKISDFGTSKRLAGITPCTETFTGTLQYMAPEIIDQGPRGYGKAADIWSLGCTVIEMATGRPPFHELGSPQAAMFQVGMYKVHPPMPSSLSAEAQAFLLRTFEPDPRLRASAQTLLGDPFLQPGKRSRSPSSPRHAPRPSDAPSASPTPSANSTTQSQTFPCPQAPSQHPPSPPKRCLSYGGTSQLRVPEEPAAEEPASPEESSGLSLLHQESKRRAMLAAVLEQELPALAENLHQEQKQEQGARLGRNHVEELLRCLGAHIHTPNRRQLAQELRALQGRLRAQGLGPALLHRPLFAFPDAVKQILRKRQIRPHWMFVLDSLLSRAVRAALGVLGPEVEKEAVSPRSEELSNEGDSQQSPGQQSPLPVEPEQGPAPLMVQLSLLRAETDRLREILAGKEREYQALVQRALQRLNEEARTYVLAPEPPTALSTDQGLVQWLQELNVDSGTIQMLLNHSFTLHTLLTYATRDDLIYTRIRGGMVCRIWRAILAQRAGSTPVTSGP
UniProt Q14210: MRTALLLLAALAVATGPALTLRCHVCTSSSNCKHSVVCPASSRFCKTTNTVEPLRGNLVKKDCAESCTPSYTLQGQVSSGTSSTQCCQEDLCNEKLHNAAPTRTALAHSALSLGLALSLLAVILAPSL
UniProt Q86UD3: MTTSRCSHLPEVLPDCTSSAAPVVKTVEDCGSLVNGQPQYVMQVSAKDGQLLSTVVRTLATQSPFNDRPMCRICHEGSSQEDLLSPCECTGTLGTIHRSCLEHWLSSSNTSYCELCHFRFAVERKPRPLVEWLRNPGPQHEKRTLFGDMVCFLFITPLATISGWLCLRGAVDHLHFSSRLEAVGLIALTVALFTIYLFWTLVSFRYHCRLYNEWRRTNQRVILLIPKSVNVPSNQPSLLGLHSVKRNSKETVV
UniProt O60307: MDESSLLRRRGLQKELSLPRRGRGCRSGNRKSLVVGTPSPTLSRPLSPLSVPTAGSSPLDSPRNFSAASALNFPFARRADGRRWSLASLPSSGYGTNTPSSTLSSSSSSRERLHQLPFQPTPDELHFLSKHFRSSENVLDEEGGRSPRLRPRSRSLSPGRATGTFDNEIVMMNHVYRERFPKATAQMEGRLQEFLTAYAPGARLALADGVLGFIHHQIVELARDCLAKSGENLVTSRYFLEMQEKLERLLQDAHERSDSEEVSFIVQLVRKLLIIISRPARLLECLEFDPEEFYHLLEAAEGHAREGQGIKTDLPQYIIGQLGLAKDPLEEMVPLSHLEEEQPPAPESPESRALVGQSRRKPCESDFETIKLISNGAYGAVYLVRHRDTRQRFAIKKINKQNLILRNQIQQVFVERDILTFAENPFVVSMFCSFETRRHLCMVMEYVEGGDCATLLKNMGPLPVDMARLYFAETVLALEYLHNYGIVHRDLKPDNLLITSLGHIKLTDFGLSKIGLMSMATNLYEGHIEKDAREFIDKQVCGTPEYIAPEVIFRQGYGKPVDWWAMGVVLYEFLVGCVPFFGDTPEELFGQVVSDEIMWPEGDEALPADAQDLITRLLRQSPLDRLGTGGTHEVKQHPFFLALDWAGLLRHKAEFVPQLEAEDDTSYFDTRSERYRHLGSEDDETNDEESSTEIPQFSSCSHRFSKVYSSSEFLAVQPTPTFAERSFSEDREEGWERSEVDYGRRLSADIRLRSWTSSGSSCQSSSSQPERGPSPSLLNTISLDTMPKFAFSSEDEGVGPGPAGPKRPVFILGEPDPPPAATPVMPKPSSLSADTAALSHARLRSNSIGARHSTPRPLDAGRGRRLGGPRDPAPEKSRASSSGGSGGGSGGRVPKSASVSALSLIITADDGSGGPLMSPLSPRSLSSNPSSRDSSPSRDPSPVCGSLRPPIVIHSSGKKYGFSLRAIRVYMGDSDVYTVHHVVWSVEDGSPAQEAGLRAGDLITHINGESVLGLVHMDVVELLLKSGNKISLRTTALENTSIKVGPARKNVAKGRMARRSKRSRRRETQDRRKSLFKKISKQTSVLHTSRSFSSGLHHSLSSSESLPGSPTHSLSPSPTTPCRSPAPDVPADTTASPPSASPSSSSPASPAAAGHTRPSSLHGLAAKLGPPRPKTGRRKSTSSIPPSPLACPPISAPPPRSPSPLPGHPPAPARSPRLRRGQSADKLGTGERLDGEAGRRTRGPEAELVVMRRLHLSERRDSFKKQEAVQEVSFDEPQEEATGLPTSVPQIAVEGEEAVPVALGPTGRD
UniProt P43356, whole entry, looked up: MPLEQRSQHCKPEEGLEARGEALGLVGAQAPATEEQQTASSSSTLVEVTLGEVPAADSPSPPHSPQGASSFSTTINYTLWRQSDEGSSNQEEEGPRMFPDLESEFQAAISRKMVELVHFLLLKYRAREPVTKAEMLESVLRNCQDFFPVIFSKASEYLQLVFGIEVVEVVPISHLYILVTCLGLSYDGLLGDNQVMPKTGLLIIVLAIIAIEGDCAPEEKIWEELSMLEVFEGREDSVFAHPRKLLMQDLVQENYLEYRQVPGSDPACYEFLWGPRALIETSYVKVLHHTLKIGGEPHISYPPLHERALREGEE
UniProt P43357, whole entry, looked up: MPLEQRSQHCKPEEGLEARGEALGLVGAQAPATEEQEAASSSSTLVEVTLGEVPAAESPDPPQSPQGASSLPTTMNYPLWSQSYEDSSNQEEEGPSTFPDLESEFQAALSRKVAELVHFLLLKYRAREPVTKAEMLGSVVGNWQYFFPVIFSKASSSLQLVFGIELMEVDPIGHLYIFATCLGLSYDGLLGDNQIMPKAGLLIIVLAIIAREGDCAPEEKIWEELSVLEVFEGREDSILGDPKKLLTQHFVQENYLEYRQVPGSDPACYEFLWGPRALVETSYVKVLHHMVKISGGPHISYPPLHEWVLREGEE
UniProt P07948: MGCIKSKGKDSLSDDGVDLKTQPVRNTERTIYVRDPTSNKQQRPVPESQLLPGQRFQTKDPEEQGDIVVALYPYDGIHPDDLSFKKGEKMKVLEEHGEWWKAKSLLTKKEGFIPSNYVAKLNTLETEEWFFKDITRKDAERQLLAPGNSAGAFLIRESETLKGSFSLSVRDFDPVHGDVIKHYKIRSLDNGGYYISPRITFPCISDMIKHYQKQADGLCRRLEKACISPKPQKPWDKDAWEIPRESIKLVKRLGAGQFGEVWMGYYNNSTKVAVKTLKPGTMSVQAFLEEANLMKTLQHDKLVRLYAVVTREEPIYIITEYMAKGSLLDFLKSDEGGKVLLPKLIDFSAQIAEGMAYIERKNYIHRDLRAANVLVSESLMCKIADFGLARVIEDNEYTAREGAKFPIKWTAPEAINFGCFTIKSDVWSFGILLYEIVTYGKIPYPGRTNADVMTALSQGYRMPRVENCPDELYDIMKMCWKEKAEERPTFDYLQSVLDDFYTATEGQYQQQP
UniProt P10636, whole entry, looked up: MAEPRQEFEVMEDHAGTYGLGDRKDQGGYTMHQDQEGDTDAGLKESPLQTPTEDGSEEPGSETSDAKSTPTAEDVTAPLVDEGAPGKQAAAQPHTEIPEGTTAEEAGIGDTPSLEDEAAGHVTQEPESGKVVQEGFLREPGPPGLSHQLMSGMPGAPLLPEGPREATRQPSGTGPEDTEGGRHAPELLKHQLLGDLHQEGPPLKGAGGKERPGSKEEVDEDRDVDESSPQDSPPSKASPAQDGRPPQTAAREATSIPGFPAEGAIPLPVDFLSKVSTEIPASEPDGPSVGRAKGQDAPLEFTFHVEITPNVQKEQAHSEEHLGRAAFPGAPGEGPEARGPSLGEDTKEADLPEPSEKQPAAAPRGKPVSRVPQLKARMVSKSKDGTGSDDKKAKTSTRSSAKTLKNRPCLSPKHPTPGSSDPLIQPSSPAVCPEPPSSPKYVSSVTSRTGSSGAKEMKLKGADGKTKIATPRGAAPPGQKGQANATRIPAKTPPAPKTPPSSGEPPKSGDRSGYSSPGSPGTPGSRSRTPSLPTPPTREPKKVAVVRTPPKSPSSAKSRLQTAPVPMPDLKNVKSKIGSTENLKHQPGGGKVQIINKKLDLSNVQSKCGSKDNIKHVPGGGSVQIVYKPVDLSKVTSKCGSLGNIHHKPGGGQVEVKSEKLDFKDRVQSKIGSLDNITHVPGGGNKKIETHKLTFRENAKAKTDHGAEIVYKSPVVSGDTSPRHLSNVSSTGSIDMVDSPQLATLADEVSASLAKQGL
UniProt Q9ULX9: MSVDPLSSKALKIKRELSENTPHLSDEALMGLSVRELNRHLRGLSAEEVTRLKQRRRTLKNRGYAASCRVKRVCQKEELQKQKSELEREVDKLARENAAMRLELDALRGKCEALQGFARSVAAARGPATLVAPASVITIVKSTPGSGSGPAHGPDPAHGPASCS
UniProt P43358: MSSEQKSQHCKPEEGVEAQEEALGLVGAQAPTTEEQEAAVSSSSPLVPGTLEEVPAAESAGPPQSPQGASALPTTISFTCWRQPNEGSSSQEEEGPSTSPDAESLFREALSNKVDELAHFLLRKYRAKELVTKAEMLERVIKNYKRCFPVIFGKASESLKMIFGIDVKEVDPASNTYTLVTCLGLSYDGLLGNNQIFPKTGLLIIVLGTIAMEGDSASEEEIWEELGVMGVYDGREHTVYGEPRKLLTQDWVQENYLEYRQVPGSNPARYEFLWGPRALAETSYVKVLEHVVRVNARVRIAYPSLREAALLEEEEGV
UniProt Q9H992: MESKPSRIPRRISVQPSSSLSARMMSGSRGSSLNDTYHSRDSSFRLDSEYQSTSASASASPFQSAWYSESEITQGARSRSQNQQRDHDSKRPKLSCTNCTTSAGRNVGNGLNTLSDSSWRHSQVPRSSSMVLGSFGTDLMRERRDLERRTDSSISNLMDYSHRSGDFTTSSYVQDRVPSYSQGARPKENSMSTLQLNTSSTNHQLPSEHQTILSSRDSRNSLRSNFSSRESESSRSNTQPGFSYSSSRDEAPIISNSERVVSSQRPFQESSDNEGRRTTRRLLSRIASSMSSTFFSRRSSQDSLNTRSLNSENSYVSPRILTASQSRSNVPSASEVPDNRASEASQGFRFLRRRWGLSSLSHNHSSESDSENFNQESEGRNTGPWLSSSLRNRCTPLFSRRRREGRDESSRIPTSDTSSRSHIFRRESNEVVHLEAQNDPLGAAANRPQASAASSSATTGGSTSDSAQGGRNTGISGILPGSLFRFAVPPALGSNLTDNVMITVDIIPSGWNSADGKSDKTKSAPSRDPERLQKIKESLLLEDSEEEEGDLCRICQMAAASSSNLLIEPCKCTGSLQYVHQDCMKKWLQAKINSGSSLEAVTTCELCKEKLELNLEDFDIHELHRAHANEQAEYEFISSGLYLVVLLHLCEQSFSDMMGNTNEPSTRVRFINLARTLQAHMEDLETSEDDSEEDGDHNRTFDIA

[2] = compound: Cc1sc2c(c1C)C(c1ccc(Cl)cc1)=N[C@@H](CC(=O)OC(C)(C)C)c1nnc(C)n1-2
Outline: as §1

[3] = compound: c1ccc([C@@H]2C[C@H]2NC2CCNCC2)cc1
Outline: as §1

Row | Target | log2 fold change [1] | log2 fold change [2] | log2 fold change [3]
1 | MAP3K6 (UniProt O95382) | inactive: 0.012 |  | 
2 | LY6D (UniProt Q14210) |  | inactive: -0.893 | 
3 | MARCHF3 (UniProt Q86UD3) | inactive: 0.022 |  | inactive: 0.007
4 | MAST3 (UniProt O60307) |  | inactive: 0.041 | 
5 | MAGEA2 (UniProt P43356) |  | inactive: 0.003 | 
6 | MAGEA3 (UniProt P43357) | inactive: 0.15 |  | 
7 | LYN isoform 2 (UniProt P07948) |  | inactive: 0.043 | inactive: 0.102
8 | MAPT isoform 7 (UniProt P10636) | inactive: 0.151 |  | inactive: 0
9 | MAFF (UniProt Q9ULX9) | inactive: -0.114 |  | inactive: 0.03
10 | MAGEA4 (UniProt P43358) | inactive: -0.019 | inactive: -0.043 | inactive: 0.204
11 | MARCHF7 (UniProt Q9H992) |  | inactive: 0.001 | 

2 entries drawn at random from those above:
Row | Target | log2 fold change [1] | log2 fold change [2] | log2 fold change [3]
5 | MAGEA2 (UniProt P43356) |  | inactive: 0.003 | 
3 | MARCHF3 (UniProt Q86UD3) | inactive: 0.022 |  | inactive: 0.007
